# Test results taken from article PMC7862700.
# Amino acid sequences for entries named in this document (tags omitted). A change or cut given only in a name is not applied to a line headed by its entry.
# UniProt O43186: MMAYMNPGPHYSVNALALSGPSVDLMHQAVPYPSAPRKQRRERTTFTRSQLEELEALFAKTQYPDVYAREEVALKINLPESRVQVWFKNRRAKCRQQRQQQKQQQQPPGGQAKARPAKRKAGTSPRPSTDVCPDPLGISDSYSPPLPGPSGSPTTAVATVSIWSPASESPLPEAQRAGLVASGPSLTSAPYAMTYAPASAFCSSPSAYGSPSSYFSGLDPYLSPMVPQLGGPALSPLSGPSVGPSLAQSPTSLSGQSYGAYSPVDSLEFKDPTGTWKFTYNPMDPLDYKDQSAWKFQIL
# This is a selection; strong and weak results do not stand in their true shares. At the low end of the ranking the order means little.
# Key:
# CRX = CRX (UniProt O43186); assay: DAPPL (digital affinity profiling via proximity ligation, sequencing); conditions: 10 mM Tris-HCl pH 7.5, 50 mM NaCl, 1 mM DTT, 4% glycerol, room temperature, 30 min; GST-TFs on glutathione beads, 16-mer random dsDNA library, 0.1% …; high values mean tight binding; double strand, one strand shown; scale: fold enrichment (6-mer frequency, TF over GST control)
# ELF5 = biological target: T1, ELF5 (UniProt Q9UKW6-2); assay: as above; conditions: 10 mM Tris-HCl pH 7.5, 50 mM NaCl, 1 mM DTT, 4% glycerol, room temperature, 30 min; GST-TFs on glutathione beads, 16-mer random dsDNA library, 0.1% …; high values mean tight binding; double strand, one strand shown; scale: fold enrichment (6-mer frequency, TF over GST control)
# T1 sequence: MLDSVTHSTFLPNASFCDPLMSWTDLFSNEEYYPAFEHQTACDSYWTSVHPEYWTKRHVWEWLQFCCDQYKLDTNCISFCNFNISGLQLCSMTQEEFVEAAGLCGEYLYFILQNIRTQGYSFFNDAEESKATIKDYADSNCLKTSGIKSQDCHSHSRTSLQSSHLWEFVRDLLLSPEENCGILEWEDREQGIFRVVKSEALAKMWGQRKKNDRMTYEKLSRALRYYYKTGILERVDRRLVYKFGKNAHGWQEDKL
Sequence,binding signal (CRX),binding signal (ELF5)
CAAGCA,0.975,1.11
TCAATG,1.02,0.971
CAAATC,1.69,1.08
ACCTAG,0.999,0.932
TCACCG,0.838,1.01
AGTGTA,0.808,0.989
GCACGC,0.783,0.994
AGTGCC,0.705,0.962
ACAGGA,0.653,1.28
AAGTTG,0.978,1.17
ATAGGC,1.14,0.971
CCCCAC,0.98,1.19
GCCACA,0.727,0.9
GCAGCT,1,0.909
GTACGC,0.803,1.06
TCGCCG,0.923,1.15
ACACCT,0.872,0.986
ACAATT,1.13,1.32
TGCCTT,1.33,1.39
AGTGTT,0.968,1.3
GTCTTG,0.846,0.997

Sequence,binding signal (CRX),binding signal (ELF5)
ACAAAC,0.847,1.12
AATACC,1.44,1.17
AATGGA,0.984,0.985
ACCCAC,0.875,1.19
ACGCGC,0.867,0.93
GTTGCC,0.702,0.889
CTCCAC,1.17,1.35
ATGTAG,0.907,1.04
CTCACC,0.966,1.15
ACAGCA,0.772,0.978
GGTCAC,0.631,0.999
ATTAGG,2.38,1.12
GATTTG,1.78,1.05
TTTCCG,1.39,5.34
CACTCA,0.945,1.12
GTGGCA,0.745,0.882
CTCGCG,1.3,1.42
GTGCCC,0.649,0.829
TGACCC,1.13,1.4
GCCCCG,0.813,0.974

# Not a retest: entries from further up.
Sequence,binding signal (CRX),binding signal (ELF5)
GTTGCC,0.702,0.889
CTCCAC,1.17,1.35
